Laboratory results from paper PMC1712231.
These are yes or no findings as the source states them, for the method shown. In cells and extracts the contact can be indirect. Some binding calls cover weakened binding; strength is not graded here.

Protein sequences, listed by entry. Tags and fused reporters are not part of them.
UniProt O95832: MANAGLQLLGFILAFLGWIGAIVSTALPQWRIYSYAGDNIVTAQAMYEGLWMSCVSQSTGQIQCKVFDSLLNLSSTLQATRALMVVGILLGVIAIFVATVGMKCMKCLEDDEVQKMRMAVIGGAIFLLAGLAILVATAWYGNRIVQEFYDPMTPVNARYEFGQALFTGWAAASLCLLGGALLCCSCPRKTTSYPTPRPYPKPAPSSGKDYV
UniProt Q07157: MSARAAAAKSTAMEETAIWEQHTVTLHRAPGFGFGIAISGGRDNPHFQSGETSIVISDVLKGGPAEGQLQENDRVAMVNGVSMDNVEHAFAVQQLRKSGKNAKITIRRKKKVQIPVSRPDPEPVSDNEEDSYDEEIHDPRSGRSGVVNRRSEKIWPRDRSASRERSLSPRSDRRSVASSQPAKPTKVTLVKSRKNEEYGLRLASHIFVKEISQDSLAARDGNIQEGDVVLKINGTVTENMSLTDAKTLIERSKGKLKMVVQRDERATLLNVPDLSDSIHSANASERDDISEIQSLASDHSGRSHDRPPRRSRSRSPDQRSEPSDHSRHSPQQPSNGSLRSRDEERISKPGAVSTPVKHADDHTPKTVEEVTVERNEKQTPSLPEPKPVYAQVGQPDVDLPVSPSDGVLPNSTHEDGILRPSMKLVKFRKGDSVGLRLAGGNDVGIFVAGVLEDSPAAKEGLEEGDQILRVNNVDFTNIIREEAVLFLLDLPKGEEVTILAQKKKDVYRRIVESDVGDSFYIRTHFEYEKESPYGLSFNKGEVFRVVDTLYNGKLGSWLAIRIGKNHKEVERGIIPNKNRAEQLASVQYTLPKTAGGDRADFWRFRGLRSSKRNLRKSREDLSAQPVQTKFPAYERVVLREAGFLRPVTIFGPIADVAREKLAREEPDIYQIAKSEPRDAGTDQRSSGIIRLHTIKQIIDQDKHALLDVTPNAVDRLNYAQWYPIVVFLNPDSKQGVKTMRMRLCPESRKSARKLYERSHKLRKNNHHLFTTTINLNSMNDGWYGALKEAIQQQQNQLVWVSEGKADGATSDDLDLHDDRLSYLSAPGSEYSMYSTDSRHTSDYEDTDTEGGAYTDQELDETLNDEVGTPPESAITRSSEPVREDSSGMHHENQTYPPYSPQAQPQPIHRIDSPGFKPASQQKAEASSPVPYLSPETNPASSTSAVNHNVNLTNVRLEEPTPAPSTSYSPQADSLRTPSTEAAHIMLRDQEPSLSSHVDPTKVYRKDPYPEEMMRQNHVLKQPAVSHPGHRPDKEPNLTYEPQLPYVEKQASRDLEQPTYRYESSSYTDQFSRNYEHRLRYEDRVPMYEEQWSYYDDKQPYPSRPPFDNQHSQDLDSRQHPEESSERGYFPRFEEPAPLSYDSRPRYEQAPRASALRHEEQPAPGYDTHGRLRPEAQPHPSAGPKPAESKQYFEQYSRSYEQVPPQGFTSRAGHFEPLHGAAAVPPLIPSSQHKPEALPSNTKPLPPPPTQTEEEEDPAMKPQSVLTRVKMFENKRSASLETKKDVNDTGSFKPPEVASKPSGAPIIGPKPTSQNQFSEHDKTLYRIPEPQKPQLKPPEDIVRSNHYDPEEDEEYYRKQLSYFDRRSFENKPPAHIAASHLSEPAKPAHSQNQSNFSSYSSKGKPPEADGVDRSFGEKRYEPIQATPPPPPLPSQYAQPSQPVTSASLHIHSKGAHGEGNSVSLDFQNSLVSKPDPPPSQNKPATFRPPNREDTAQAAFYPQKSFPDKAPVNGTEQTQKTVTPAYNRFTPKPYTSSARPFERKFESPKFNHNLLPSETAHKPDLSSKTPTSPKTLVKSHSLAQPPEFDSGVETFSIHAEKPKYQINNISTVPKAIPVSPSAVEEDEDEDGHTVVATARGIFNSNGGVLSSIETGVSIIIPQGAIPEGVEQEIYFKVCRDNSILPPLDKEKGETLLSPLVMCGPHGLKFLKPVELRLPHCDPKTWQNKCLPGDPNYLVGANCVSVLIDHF

T1: PKC zeta (human (endogenous in T84)) (UniProt Q05513)
T1 sequence: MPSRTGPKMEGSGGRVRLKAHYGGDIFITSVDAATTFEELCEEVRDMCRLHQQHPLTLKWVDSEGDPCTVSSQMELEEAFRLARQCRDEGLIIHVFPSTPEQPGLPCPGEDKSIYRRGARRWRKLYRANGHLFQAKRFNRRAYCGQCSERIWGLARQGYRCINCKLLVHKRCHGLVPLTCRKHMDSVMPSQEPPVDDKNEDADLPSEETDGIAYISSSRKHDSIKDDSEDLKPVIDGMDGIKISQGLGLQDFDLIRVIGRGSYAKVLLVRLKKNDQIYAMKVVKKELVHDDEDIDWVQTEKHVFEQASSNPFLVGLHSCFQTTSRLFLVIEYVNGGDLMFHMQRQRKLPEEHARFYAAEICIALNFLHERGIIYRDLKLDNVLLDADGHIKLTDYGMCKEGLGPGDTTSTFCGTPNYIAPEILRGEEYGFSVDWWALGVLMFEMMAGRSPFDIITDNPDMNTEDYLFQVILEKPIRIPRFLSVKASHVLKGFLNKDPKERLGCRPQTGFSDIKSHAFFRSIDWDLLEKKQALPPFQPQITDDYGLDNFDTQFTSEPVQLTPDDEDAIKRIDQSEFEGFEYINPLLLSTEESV


Target: T1, PKC zeta (human (endogenous in T84))
Experiment: co-IP; T84 100,000 x g membranes in 2% CHAPS, rabbit anti-PKC zeta antiserum (Sigma P0713) and Protein A-Sepharose at 4°C, washed with 2% CHAPS, eluted with the PKC zeta peptide antigen in 100 mM NaCl, 15 mM HEPES pH 7.5; western blot; control anti-serum in parallel

Row | Molecule | binding
1 | claudin-1 (from UniProt O95832 1-211) | binds
2 | ZO-1 (from UniProt Q07157 1-1748) | binds
3 | ZO-2 (protein, UniProt Q9UDY2 1-1190) MPVRGDRGFPPRRELSGWLRAPGMEELIWEQYTVTLQKDSKRGFGIAVSGGRDNPHFENGETSIVISDVLPGGPADGLLQENDRVVMVNGTPMEDVLHSFAVQQLRKSGKVAAIVVKRPRKVQVAALQASPPLDQDDRAFEVMDEFDGRSFRSGYSERSRLNSHGGRSRSWEDSPERGRPHERARSRERDLSRDRSRGRSLERGLDQDHARTRDRSRGRSLERGLDHDFGPSRDRDRDRSRGRSIDQDYERAYHRAYDPDYERAYSPEYRRGARHDARSRGPRSRSREHPHSRSPSPEPRGRPGPIGVLLMKSRANEEYGLRLGSQIFVKEMTRTGLATKDGNLHEGDIILKINGTVTENMSLTDARKLIEKSRGKLQLVVLRDSQQTLINIPSLNDSDSEIEDISEIESNRSFSPEERRHQYSDYDYHSSSEKLKERPSSREDTPSRLSRMGATPTPFKSTGDIAGTVVPETNKEPRYQEDPPAPQPKAAPRTFLRPSPEDEAIYGPNTKMVRFKKGDSVGLRLAGGNDVGIFVAGIQEGTSAEQEGLQEGDQILKVNTQDFRGLVREDAVLYLLEIPKGEMVTILAQSRADVYRDILACGRGDSFFIRSHFECEKETPQSLAFTRGEVFRVVDTLYDGKLGNWLAVRIGNELEKGLIPNKSRAEQMASVQNAQRDNAGDRADFWRMRGQRSGVKKNLRKSREDLTAVVSVSTKFPAYERVLLREAGFKRPVVLFGPIADIAMEKLANELPDWFQTAKTEPKDAGSEKSTGVVRLNTVRQIIEQDKHALLDVTPKAVDLLNYTQWFPIVIFFNPDSRQGVKTMRQRLNPTSNKSSRKLFDQANKLKKTCAHLFTATINLNSANDSWFGSLKDTIQHQQGEAVWVSEGKMEGMDDDPEDRMSYLTAMGADYLSCDSRLISDFEDTDGEGGAYTDNELDEPAEEPLVSSITRSSEPVQHEESIRKPSPEPRAQMRRAASSDQLRDNSPPPAFKPEPPKAKTQNKEESYDFSKSYEYKSNPSAVAGNETPGASTKGYPPPVAAKPTFGRSILKPSTPIPPQEGEEVGESSEEQDNAPKSVLGKVKIFEKMDHKARLQRMQELQEAQNARIEIAQKHPDIYAVPIKTHKPDPGTPQHTSSRPPEPQKAPSRPYQDTRGSYGSDAEEEEYRQQLSEHSKRGYYGQSARYRDTEL | binds
4 | occludin (protein, UniProt Q16625 1-522) MSSRPLESPPPYRPDEFKPNHYAPSNDIYGGEMHVRPMLSQPAYSFYPEDEILHFYKWTSPPGVIRILSMLIIVMCIAIFACVASTLAWDRGYGTSLLGGSVGYPYGGSGFGSYGSGYGYGYGYGYGYGGYTDPRAAKGFMLAMAAFCFIAALVIFVTSVIRSEMSRTRRYYLSVIIVSAILGIMVFIATIVYIMGVNPTAQSSGSLYGSQIYALCNQFYTPAATGLYVDQYLYHYCVVDPQEAIAIVLGFMIIVAFALIIFFAVKTRRKMDRYDKSNILWDKEHIYDEQPPNVEEWVKNVSAGTQDVPSPPSDYVERVDSPMAYSSNGKVNDKRFYPESSYKSTPVPEVVQELPLTSPVDDFRQPRYSSGGNFETPSKRAPAKGRAGRSKRTEQDHYETDYTTGGESCDELEEDWIREYPPITSDQQRQLYKRNFDTGLQEYKSLQSELDEINKELSRLDKELDDYREESEEYMAAADEYNRLKQVKGSADYKSKKNHCKQLKSKLSHIKKMVGDYDRQKT | binds
